This passage reports binding results from article PMC12551392.

The chains behind the UniProt entries cited, without tags or fusion partners.
UniProt Q00899: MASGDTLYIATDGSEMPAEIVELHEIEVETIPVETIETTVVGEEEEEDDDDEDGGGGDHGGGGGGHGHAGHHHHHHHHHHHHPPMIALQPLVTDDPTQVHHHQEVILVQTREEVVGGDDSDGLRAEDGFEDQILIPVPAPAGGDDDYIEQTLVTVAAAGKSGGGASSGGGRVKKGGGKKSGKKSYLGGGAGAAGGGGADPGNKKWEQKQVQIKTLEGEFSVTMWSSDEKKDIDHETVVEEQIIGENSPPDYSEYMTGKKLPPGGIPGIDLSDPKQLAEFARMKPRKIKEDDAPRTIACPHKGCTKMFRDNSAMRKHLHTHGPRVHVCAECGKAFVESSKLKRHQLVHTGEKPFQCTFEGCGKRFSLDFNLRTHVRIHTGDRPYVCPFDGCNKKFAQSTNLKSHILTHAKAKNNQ
UniProt O15047: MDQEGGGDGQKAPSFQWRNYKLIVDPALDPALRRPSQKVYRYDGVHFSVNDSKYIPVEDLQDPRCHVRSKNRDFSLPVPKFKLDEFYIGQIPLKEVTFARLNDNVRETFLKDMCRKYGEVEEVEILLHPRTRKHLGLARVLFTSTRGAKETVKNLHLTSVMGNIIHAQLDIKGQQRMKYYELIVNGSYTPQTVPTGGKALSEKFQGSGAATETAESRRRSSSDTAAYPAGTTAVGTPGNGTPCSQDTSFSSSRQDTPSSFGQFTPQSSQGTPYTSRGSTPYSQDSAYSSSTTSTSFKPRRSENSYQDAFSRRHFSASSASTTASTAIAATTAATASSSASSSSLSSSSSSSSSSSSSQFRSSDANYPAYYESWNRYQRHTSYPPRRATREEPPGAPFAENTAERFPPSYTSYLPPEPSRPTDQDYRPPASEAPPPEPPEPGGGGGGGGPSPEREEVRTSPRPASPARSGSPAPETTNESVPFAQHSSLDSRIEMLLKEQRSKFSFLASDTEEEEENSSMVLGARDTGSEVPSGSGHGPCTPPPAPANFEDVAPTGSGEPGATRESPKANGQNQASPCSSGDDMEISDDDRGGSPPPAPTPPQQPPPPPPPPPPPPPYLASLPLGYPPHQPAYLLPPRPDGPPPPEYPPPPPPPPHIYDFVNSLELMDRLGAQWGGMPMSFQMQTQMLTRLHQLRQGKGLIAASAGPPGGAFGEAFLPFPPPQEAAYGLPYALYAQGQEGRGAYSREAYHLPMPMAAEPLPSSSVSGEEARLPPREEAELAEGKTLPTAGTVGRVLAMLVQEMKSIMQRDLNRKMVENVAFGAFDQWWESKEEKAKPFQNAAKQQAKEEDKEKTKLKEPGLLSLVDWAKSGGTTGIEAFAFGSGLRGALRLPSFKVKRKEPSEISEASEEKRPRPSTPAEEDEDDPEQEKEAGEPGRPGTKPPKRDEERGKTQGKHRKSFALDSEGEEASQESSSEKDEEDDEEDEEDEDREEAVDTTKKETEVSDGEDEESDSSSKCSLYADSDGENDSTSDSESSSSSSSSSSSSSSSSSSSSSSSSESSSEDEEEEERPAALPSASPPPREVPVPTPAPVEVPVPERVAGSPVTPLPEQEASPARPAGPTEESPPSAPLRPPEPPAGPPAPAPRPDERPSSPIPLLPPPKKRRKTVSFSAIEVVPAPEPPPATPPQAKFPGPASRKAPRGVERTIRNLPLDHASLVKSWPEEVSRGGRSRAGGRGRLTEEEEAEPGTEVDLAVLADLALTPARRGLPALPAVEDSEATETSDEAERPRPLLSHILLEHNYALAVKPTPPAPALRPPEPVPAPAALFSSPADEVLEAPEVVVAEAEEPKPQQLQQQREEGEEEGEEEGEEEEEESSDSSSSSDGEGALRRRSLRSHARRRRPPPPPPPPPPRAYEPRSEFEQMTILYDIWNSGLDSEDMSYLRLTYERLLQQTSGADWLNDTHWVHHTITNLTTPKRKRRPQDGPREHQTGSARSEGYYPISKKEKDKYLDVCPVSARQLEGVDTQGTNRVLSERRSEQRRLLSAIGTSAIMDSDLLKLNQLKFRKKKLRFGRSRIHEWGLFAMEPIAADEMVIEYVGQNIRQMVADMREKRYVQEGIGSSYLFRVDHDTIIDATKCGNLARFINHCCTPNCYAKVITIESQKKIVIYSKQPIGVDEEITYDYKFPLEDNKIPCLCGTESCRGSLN
UniProt P25490: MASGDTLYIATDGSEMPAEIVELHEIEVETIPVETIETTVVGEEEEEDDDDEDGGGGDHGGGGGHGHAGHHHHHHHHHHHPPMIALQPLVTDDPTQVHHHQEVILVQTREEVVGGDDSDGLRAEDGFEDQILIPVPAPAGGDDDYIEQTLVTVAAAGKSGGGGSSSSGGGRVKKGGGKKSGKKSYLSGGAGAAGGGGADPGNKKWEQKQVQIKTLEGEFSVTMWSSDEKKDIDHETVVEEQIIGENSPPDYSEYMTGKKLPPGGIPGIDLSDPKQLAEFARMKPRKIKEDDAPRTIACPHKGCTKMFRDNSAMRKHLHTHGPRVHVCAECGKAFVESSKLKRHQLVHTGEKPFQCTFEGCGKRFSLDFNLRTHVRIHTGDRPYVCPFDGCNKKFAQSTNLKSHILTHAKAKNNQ
UniProt Q8BFQ4: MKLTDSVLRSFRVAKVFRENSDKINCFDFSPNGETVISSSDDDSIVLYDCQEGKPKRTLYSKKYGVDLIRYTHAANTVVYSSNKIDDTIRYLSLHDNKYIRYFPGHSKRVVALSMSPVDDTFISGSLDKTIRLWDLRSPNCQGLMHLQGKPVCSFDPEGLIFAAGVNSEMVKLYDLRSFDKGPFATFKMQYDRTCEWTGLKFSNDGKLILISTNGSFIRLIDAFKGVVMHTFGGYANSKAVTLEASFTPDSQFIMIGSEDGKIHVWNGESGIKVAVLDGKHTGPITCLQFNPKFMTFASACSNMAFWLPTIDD

For experiment [1], the target named is Yin Yang 1 (YY1), mouse (mouse (endogenous in murine aortic media)) (UniProt Q00899). Put plainly: co-IP; endogenous proteins of murine aortic media; protein extracted, precipitated with an anti-YY1 antibody or IgG (negative control), then immunoblot.
Experiment [2] deals with SET1A, human (human (endogenous in hESC-VSMCs)) (UniProt O15047). As to the kind of experiment: co-IP; whole-cell extracts treated with DNase I; reciprocal co-IP with anti-YY1 and anti-Set1A antibodies.
Experiment [3] shares this target. As to the kind of experiment: co-IP; endogenous proteins of hESC-VSMCs; protein extracted, precipitated with an anti-YY1 antibody, an anti-SET1A antibody or IgG, then immunoblot; also after lentivirus-mediated overexpression of YY1. A general note: A western blot detects proteins with antibodies after separation by electrophoresis.
Experiment [4] deals with Yin Yang 1 (YY1), human (human (endogenous in hESC-VSMCs)) (UniProt P25490). Put plainly: co-IP; whole-cell extracts treated with DNase I; reciprocal co-IP with anti-YY1 and anti-Set1A antibodies.
For experiment [5] the target is unchanged. As to the kind of experiment: co-IP; endogenous proteins of hESC-VSMCs; protein extracted, precipitated with an anti-YY1 antibody, an anti-SET1A antibody or IgG, then immunoblot; also after lentivirus-mediated overexpression of YY1.

These are yes or no findings as the source states them, for the method shown. In cells and extracts the contact can be indirect. Some entries that bind do so weakly or less than the wild type.

Turning to “Wdr82, mouse (from UniProt Q8BFQ4 1-313)”, the binding entry in experiment [1] is on record as “binds”. In the case of “Yin Yang 1 (YY1), human (from UniProt P25490 1-414)”, the binding result in experiment [2] and in experiment [3] was “binds” each time.

“SET1A, human (from UniProt O15047 1-1707) (enzyme)”: the binding entry in experiment [4] and in experiment [5] was “binds” throughout.
